The values below come from publication PMC5983471 (PLoS ONE, 2018).

Molecules are shown by their SMILES.

For this series, the system named is tumor-associated and AR-V transcripts in circulating tumor cells. The series can be described thus: AdnaTest qRT-PCR of circulating tumor cells. In kind it is in vivo, human. More on the design: key: Tumor-associated transcripts (PCR fragment) are detected by visualization on 2% agarose gel (+/-). As to conditions: Day 29; 1000 mg PO TID + enzalutamide; Pt# 19. (In general: Real-time PCR tracks product formation cycle by cycle.)

With `O=C(Nc1ccc([N+](=O)[O-])cc1Cl)c1cc(Cl)ccc1O` [niclosamide, 2',5-dichloro-4'-nitrosalicylanilide], the “PSMA transcript in CTCs” value was “+”.
